# Test results published in patent US4612366A (Merck & Co., Inc., priority 1985, dated 1986).
# Test: general procedure: Boc solid-phase peptide synthesis; OCH2-phi-resin
# Conditions: late stage modification step
Substance,final HPLC purity [%],crude HPLC purity [%]
Cyclo [Phe-Pro(γ-t-OTs)-Phe-D-Trp-Lys-(2-Cl-CBZ)-Thr-(BZl)],98,–
Cyclo[Phe-Pro(γ-t-OAC)-Phe-D-Trp-Lys(2-Cl-CBZ)-Thr-(BZl)],–,90
Cyclo(Phe-Pro(γ-cis-OAc)-Phe-D-Trp-Lys-Thr),90,–
Cyclo(Phe-Pro(γ-cis-OH)-Phe-D-Trp-Lys-Thr),94,–
